# Assay results: the supplement of paper PMC12067093, “Discovery and optimisation of a covalent ligand for TRIM25 and its application to targeted protein ubiquitination” (Chemical Science, 2025)
# The chains behind the UniProt entries cited, without tags or fusion partners. Where a name states a change or a piece, a line headed by the entry shows the natural chain unless it says otherwise.
# UniProt Q8TER5, whole entry, looked up: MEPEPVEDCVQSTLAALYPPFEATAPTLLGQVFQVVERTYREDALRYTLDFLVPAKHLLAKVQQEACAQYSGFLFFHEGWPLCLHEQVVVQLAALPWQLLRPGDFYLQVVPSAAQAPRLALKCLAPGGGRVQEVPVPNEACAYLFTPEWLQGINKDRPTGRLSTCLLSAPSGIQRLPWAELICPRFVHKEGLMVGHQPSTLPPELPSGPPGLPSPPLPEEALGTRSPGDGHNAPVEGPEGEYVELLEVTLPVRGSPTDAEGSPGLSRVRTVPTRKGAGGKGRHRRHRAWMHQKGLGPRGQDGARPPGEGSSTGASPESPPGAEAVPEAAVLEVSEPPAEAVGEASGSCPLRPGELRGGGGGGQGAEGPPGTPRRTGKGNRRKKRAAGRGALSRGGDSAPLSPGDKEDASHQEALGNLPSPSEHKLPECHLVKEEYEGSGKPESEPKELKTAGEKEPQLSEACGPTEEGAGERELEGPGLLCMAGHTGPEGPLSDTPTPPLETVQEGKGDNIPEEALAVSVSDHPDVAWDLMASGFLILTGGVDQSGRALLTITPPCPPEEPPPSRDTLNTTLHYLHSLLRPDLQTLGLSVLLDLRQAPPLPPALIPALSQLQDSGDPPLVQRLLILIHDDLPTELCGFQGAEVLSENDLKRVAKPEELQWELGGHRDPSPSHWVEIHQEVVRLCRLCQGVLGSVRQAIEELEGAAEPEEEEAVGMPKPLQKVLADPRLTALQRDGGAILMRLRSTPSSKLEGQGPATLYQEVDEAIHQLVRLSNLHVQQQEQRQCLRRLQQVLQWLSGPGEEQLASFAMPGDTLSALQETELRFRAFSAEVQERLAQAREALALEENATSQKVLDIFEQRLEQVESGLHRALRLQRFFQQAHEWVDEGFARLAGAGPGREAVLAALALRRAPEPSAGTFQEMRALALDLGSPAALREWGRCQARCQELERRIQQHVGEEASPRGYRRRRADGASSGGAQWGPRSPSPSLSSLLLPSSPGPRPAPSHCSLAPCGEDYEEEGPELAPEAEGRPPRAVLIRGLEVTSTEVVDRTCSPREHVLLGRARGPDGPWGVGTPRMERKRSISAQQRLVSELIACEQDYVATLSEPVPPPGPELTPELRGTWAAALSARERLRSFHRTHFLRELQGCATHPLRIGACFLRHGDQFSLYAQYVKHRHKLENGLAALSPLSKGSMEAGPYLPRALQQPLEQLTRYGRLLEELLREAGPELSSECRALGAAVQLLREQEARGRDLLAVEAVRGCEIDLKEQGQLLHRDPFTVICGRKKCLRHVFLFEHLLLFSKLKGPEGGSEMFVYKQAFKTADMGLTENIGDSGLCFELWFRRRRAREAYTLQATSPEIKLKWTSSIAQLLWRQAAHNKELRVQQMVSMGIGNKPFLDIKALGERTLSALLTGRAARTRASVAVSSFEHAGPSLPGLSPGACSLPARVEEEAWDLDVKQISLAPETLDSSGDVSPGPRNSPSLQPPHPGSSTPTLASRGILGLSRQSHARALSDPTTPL
# UniProt Q15052: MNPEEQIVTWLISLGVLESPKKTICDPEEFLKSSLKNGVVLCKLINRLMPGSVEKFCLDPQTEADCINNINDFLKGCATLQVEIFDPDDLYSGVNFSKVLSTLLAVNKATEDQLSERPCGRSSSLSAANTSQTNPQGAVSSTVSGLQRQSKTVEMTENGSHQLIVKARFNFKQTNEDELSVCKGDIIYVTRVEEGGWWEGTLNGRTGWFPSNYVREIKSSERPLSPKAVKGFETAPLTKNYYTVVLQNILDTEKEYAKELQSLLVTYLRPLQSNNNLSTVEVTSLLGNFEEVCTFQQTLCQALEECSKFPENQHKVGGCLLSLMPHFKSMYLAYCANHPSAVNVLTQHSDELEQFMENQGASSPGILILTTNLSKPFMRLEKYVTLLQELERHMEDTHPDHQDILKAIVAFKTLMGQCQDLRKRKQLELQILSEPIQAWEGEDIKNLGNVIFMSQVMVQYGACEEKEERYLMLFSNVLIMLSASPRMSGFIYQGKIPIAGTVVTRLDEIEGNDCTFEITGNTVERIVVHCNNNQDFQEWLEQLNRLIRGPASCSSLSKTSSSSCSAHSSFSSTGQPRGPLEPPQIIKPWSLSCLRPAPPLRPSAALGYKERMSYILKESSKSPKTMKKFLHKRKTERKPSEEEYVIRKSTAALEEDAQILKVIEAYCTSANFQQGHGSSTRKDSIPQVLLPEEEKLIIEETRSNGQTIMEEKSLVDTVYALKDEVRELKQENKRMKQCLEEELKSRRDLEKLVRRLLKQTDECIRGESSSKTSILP
# UniProt P29374: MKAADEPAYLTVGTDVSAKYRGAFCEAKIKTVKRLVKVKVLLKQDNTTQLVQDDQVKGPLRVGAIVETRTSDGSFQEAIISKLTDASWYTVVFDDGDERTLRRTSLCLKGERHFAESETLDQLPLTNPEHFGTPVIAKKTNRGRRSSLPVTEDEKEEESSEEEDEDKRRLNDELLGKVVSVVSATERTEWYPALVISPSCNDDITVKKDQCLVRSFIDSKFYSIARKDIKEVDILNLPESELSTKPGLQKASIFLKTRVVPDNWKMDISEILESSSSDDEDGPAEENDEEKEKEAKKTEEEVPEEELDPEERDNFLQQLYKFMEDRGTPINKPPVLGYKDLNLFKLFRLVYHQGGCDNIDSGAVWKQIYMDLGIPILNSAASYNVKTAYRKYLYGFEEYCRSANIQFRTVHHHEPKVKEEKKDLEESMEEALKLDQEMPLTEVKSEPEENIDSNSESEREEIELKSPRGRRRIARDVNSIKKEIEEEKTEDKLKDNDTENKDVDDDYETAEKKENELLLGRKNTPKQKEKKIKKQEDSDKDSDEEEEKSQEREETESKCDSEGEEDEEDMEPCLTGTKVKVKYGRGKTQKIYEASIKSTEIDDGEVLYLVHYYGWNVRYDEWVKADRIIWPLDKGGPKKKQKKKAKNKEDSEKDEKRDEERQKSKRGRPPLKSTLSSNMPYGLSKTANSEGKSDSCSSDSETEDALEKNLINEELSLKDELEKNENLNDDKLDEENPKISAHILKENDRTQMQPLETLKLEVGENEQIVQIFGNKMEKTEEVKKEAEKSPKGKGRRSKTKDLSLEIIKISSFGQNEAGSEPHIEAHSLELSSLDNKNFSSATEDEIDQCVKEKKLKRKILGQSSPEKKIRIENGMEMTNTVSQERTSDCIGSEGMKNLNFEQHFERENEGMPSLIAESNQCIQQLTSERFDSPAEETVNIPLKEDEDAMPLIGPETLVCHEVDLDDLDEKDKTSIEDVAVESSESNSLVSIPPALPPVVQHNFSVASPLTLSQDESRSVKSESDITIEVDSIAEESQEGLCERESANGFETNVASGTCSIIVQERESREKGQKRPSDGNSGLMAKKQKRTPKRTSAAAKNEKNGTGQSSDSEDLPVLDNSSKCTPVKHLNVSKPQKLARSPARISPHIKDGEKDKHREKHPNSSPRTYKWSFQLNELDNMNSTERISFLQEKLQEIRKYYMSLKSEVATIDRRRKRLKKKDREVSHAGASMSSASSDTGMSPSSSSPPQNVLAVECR
# UniProt Q92888: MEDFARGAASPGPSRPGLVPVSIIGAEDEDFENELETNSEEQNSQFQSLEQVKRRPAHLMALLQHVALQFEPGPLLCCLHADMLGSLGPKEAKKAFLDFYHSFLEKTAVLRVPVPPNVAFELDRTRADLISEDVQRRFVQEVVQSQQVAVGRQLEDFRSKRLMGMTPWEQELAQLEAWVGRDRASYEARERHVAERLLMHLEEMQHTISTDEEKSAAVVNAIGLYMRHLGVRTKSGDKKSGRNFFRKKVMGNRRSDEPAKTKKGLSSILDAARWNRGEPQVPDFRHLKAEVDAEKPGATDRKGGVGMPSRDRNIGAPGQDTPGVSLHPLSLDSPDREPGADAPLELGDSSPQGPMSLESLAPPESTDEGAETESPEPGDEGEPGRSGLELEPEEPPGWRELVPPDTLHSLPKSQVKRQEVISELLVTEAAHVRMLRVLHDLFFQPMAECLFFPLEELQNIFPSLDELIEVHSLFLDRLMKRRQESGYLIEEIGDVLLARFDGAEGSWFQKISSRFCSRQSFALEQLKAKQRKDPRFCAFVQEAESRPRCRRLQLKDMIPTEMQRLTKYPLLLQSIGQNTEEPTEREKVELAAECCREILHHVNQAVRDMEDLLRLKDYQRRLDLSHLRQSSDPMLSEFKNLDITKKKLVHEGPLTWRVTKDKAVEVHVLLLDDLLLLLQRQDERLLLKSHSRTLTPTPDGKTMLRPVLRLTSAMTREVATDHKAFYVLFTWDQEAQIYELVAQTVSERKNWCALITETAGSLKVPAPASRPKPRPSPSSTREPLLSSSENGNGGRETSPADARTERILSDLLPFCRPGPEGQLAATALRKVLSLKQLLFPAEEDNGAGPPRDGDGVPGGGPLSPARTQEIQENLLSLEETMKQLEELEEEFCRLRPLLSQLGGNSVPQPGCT
# UniProt Q9Y4X5: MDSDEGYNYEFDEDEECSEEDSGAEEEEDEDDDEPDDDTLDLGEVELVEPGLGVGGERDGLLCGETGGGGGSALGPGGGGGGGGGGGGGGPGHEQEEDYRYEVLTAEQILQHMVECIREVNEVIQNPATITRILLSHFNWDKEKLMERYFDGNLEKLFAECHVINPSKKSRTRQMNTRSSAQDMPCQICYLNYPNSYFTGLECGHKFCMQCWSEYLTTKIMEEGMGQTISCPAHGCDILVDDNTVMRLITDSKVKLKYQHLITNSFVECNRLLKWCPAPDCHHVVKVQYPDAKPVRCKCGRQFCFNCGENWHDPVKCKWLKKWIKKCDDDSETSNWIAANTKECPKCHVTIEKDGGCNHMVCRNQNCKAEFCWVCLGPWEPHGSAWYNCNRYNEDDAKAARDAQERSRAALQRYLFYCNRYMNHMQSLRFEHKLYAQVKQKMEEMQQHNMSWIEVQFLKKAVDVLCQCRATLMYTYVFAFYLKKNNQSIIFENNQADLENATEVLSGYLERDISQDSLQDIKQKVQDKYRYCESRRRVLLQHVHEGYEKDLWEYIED
# UniProt O60306: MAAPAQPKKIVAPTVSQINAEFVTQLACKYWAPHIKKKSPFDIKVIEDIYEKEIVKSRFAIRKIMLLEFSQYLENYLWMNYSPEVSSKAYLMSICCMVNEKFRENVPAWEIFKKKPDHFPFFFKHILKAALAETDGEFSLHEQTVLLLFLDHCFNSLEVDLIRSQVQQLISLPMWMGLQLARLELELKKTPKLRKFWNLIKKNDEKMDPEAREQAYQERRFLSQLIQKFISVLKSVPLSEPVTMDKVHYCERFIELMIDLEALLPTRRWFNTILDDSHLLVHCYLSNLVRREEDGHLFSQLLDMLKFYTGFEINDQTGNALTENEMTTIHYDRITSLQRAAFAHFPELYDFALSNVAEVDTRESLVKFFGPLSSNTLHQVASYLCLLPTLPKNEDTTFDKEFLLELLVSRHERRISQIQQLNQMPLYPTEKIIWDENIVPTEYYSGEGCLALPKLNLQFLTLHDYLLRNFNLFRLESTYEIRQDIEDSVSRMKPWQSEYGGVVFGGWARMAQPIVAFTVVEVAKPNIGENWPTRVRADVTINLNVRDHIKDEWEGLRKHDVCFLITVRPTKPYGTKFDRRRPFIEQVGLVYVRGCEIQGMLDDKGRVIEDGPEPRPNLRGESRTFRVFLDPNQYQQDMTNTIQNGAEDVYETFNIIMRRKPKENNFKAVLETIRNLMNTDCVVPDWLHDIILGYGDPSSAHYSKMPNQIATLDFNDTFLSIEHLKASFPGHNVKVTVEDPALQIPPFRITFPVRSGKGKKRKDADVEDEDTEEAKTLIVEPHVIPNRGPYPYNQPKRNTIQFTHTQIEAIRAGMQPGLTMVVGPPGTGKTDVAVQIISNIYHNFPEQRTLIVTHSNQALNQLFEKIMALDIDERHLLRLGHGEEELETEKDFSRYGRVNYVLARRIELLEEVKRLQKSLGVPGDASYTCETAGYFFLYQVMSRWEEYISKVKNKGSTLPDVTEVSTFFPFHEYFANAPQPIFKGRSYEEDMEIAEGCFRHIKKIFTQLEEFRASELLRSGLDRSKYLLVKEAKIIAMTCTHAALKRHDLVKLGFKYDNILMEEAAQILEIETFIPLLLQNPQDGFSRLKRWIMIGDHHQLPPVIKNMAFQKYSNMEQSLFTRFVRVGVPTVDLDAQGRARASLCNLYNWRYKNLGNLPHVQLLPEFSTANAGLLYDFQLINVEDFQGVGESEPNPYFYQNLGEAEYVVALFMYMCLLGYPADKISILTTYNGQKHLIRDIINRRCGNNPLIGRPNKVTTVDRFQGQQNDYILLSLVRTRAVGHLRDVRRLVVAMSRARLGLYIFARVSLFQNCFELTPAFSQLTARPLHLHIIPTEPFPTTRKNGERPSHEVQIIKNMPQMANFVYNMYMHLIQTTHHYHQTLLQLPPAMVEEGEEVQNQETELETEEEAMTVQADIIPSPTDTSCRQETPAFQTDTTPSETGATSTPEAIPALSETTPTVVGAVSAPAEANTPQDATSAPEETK
# Some of the results follow.
# Compound: Cc1cc(ccc1-c1ccccc1)C(=O)N1CCCN(CC1)C(=O)CCl [compound 10]
# Assay: probe-labelled cysteine peptide fold change vs DMSO (competition) (log2 fold change); higher = less target engagement (more negative = stronger competition)
# Details: 10 µM; THP-1; incubation time: 4 h
# 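Further: competitive profiling in live THP-1 cells: cysteine peptides tagged with an iodoacetamide desthiobiotin (IA-DTB) probe, intensity after compound treatment relative to DMSO-treated cells.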
row,Target,probe-labelled cysteine peptide fold change
1,ARHGAP4_P98171_34_CLELQGELR (UniProt P98171),-0.0772
2,ARHGEF40_Q8TER5_1148_ELQGCATHPLR (UniProt Q8TER5),-0.0789
3,ARHGAP30_Q7Z6I6_1021_RTQTCTEGGDYCLIPR (UniProt Q7Z6I6),0.00592
4,ARHGEF6_Q15052_66_FCLDPQTEADCINNINDFLK (UniProt Q15052),0.158
5,ARID4A_P29374_356_LVYHQGGCDNIDSGAVWK (UniProt P29374),-0.0193
6,ARHGEF1_Q92888_537_FCAFVQEAESRPR (UniProt Q92888),0.00956
7,ARL14EP_Q8N8R7_5_MMDPCSVGVQLR (UniProt Q8N8R7),0.353
8,ARFGEF1_Q9Y6D6_102_IVSTSLDCLQK (UniProt Q9Y6D6),0.0609

# Same assay, conditions: 50 µM; THP-1; incubation time: 4 h
row,Target,probe-labelled cysteine peptide fold change
1,ARIH2_O95376_270_QMYHAPTDCATIR (UniProt O95376),0.0258
2,ARHGAP4_P98171_840_QVVGAGLQTAGESGSSPEGLLASELVHRPEPCTSPEAMGPSGHR (UniProt P98171),-0.535
3,ARIH1_Q9Y4X5_357_DGGCNHMVCR (UniProt Q9Y4X5),-0.243
4,AQR_O60306_28_KIVAPTVSQINAEFVTQLACK (UniProt O60306),-0.504
5,ARHGAP26_Q9UNA1_142_YCGILEK (UniProt Q9UNA1),-0.125
6,ARIH2_O95376_323_HDFCWMCLGDWK (UniProt O95376),0.00552
7,ARHGEF11_O15085_793_LFPNLPELIEIHNSWCEAMK (UniProt O15085),0.0986
8,ARHGAP4_P98171_855_CLVPASPEQHVEVDK (UniProt P98171),-0.365
9,ARHGAP4_P98171_102_EPSLLSPLHCWAVLLQHTR (UniProt P98171),0.0559
10,ARHGEF1_Q92888_815_ILSDLLPFCRPGPEGQLAATALRK (UniProt Q92888),-0.725
11,ARMC6_Q6NXE6_297_AFLDNPGILSELCGTLSR (UniProt Q6NXE6),-0.237
12,ARMC8_Q8IUR7_3_ACLLETPIR (UniProt Q8IUR7),0.166
13,ARID4A_P29374_211_DQCLVR (UniProt P29374),-0.0451
14,ARHGEF12_Q9NZN5_1128_TVWQDLICR (UniProt Q9NZN5),-0.166
15,ARPC1B_O15143_227_VAWVSHDSTVCLADADK (UniProt O15143),0.312
16,ARHGAP30_Q7Z6I6_407_CAGVHISDPYNVNLPLHITSILSVPPNIISNVSLAR (UniProt Q7Z6I6),0.237
17,ARIH1_Q9Y4X5_281_WCPAPDCHHVVK (UniProt Q9Y4X5),-0.0371
18,ARHGEF10_O15013_809_AADCCR (UniProt O15013),-0.633
19,ARID2_Q68CP9_382_GMEILGNLCK (UniProt Q68CP9),0.153

row,Target,probe-labelled cysteine peptide fold change
1,ARHGAP17_Q68EM7_53_LVACFQGQHGTDAERR (UniProt Q68EM7),-0.131
2,ARIH2_O95376_340_THGSEYYECSR (UniProt O95376),-0.191
3,ARHGAP4_P98171_330_VLEVHATVFCPPLR (UniProt P98171),0.139
4,APRT_P07741_83_GFLFGPSLAQELGLGCVLIR (UniProt P07741),0.0921
5,ARPC1A_Q92747_70_IVTCGADR (UniProt Q92747),-0.101
6,ARHGEF2_Q92974_573_TCPSREDFPLIETEDEAYLRR (UniProt Q92974),0.0748
7,ARF6_P62330_90_HYYTGTQGLIFVVDCADRDRIDEAR (UniProt P62330),-0.303
8,ARL2BP_Q9Y2Y0_149_GLDLSSGLVVTSLCK (UniProt Q9Y2Y0),-0.0301
9,ARHGAP18_Q8N392_323_DSGLFCVPLTALLEQDQR (UniProt Q8N392),-0.00525
10,AQR_O60306_997_SYEEDMEIAEGCFR (UniProt O60306),0.0038
11,ARHGAP45_Q92619_739+747_CLETLAIQCGHK (UniProt Q92619),-0.333
12,ARID1B_Q8NFD5_2074_LVLETLCK (UniProt Q8NFD5),0.248
13,ARHGAP4_P98171_34_CLELQGELR (UniProt P98171),0.221
14,ARHGEF40_Q8TER5_1148_ELQGCATHPLR (UniProt Q8TER5),-0.352
15,ARHGEF6_Q15052_66_FCLDPQTEADCINNINDFLK (UniProt Q15052),0.0931
16,ARID4A_P29374_356_LVYHQGGCDNIDSGAVWK (UniProt P29374),0.0919
17,ARHGEF1_Q92888_537_FCAFVQEAESRPR (UniProt Q92888),-0.0828
18,ARL14EP_Q8N8R7_5_MMDPCSVGVQLR (UniProt Q8N8R7),-0.0951
19,ARFGEF1_Q9Y6D6_102_IVSTSLDCLQK (UniProt Q9Y6D6),0.0686
